Assay results from paper PMC3426554.
No constants are given. Whether binding was seen depends on the method and setting. For some assays here: In cells and extracts the contact can be indirect. Where a sequence is shown, tags or fusion partners need not be part of it. Values belong to the binder of their own block, whether it stands above or below them.

Tests used:
[1] = target: T1, full-length Myc-HIM-18 (C. elegans) (UniProt Q22145); experiment: co-IP; HA- and Myc-tagged constructs co-transfected into HEK293T; lysis in 50 mM Tris-HCl pH 7.5, 150 mM NaCl, 0.5% NP-40, 10 mM NaF, 1 mM EDTA; precipitated with anti-HA resin or anti-myc resin, washed 4-5X with lysis buffer, immunoblotted
T1 sequence: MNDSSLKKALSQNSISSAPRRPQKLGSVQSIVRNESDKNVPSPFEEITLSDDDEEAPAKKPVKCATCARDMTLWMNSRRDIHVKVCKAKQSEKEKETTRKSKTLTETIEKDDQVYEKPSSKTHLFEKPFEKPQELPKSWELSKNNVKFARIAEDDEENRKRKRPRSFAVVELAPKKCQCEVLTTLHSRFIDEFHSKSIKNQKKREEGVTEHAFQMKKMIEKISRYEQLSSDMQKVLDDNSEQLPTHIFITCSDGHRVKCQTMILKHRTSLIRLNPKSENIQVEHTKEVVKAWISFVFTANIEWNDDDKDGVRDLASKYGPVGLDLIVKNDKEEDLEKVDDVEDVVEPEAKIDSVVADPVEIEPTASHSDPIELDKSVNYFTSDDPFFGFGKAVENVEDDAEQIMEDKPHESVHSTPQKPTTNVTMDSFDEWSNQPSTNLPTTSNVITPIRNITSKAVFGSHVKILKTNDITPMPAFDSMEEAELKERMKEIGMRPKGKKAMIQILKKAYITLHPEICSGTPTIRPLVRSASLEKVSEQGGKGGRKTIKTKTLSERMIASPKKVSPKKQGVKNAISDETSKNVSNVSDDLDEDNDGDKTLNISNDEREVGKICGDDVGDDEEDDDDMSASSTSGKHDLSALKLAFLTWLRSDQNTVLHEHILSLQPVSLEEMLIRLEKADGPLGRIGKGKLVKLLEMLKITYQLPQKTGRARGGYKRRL

[2] = target: T2, full-length HIM-18 fused to GAL4-AD (C. elegans) (UniProt Q22145); experiment: two-hybrid; HIM-18 fused to GAL4-AD, SLX-1 constructs fused to GAL4-DB; mated yeast Y8800 x Y8930; growth on -His + 1 mM 3-AT plates at 30°C
T2 sequence: T1 sequence

binding [1]: no binding
B1: HA-SLX-1-N (domain or fragment, UniProt P91351 1-272)
chain: METFILSSDSDDDSGPPPSKRRTIEGIPRSFSGDKKIRFSFGASNMSQDTTQEIIPEDTDTVPLTIPSTPALSGKFDSKTPKSVRRRSVSMSCFTPIVETINQPPTNQACSSFLQKEYNFHDLSSDEEGGDGGAGCSKDEDKIIEDNLNLRALLSPEKKKRKEKIEEVQNEFYGVYCLISRSDRPCYKNRCYIGYTVDPNRRIMQHNGGRDKGGAKKTDSRGPWDMVCVVHGFPNHVAALHFEWAWQNPLVSKSLKEKQLRKERKETPFAFQ

binding [2]: no binding
B2: SLX-1N^1–272 fused to GAL4-DB (domain or fragment, UniProt P91351 1-272)
chain: B1 chain
